{
  "source": "patent US8420067B2",
  "about": "(Starpharma Pty Ltd, priority 2006, dated 2013)",
  "test": "peptide synthesis",
  "settings": "late stage modification step",
  "data": [
    {"substance": "[NH2] EOEOEN [Su(NPN)2] [Lys]16 [PEG570]32", "values": [
      {"measurement": "step yield", "result": 90, "unit": "%"}
    ]}
  ]
}
